Results as given in publication PMC9816108.
These are yes or no findings as the source states them, for the method shown. In cells and extracts the contact can be indirect. Some results given as binding are weak or reduced against the parent protein; the word gives no strength. For some assays here: Sequences can lack the tags named with a protein.

Sequences of proteins named here, by UniProt entry; tags and fusion partners are left off. Residues count along the entry.
UniProt P62812, residues 28-455: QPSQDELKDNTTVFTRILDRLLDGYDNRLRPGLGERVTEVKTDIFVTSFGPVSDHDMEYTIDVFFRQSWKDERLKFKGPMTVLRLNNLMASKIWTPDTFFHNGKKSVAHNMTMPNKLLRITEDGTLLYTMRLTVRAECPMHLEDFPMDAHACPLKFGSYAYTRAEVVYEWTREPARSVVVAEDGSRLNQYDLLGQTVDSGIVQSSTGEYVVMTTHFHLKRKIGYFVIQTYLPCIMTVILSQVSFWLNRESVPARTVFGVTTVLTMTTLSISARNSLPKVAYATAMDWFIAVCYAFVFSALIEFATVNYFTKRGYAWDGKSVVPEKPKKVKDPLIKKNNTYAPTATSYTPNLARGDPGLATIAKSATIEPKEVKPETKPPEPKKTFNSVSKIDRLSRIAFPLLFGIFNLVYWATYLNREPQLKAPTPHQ
UniProt Q62261: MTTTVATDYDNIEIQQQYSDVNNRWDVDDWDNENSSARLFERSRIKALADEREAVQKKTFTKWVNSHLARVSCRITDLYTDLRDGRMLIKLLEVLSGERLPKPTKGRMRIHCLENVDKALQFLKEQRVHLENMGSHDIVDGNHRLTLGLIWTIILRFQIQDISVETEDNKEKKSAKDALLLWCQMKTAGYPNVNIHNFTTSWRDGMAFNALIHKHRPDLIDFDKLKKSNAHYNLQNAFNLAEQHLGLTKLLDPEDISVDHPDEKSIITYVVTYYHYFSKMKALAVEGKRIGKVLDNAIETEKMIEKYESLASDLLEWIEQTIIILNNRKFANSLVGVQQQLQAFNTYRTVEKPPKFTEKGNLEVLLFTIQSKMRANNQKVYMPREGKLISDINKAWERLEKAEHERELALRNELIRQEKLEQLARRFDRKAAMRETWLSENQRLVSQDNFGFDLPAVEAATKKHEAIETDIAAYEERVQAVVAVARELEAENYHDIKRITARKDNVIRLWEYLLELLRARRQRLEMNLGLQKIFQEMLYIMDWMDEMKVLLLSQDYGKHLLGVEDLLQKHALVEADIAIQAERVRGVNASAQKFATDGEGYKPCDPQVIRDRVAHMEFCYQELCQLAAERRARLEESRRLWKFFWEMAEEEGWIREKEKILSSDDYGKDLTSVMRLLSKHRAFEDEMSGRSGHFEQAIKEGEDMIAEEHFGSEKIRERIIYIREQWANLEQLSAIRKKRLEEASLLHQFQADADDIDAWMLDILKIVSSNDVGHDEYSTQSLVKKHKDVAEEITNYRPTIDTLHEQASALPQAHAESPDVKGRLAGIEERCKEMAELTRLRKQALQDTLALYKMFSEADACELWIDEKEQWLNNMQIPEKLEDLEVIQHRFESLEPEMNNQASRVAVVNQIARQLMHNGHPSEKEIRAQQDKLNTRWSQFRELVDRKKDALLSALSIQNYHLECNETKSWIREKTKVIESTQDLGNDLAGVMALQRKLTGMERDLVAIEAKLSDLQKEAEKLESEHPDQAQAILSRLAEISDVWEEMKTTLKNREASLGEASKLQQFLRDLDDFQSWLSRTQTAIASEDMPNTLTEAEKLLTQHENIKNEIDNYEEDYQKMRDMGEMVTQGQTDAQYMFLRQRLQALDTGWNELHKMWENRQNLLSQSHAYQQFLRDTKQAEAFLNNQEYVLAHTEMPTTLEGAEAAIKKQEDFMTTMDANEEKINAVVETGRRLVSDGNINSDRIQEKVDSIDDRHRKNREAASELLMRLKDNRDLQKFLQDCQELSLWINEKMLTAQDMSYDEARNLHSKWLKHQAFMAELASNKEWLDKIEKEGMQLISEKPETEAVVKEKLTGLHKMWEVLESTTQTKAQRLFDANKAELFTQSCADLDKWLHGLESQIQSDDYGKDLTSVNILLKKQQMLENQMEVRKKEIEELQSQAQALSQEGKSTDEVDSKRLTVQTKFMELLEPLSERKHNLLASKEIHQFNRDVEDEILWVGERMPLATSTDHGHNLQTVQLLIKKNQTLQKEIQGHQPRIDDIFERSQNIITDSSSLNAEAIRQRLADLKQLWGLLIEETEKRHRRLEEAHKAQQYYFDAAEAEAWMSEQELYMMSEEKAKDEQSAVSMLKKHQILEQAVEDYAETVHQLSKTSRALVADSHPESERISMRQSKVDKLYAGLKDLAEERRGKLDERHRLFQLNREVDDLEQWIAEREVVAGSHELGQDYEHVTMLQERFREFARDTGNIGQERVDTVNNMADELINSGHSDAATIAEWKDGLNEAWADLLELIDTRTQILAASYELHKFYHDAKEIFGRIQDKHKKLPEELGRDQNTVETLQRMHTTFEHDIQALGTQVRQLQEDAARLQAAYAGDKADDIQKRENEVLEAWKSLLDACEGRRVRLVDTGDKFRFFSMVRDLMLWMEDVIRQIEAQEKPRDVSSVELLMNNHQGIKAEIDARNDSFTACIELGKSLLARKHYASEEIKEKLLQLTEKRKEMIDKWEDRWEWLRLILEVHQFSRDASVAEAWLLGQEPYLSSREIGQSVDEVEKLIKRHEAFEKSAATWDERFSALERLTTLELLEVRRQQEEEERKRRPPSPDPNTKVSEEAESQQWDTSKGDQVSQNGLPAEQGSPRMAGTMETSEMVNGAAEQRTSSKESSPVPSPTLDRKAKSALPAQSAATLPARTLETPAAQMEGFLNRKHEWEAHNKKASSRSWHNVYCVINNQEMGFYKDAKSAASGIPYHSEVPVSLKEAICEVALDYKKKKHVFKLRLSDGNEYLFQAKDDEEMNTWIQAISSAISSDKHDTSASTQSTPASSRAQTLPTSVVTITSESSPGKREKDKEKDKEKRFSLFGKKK

Tests used:
[1] = molecular target: GABAA receptor α1 subunit (mouse (endogenous in forebrain)) (UniProt P62812); experiment: co-IP; immunopurified α1 and α2 (pHα2) receptors from forebrain plasma membranes resolved by BN-PAGE and immunoblotted for α1, pHα2 (GFP), β2 spectrin and β4 spectrin
[2] = molecular target: T1, GABAA receptor α2 subunit modified with pHluorin and 9E10 (myc) epitope on its N-terminus (mouse (knock-in, forebrain)) (UniProt P26048); experiment: as above
T1 sequence: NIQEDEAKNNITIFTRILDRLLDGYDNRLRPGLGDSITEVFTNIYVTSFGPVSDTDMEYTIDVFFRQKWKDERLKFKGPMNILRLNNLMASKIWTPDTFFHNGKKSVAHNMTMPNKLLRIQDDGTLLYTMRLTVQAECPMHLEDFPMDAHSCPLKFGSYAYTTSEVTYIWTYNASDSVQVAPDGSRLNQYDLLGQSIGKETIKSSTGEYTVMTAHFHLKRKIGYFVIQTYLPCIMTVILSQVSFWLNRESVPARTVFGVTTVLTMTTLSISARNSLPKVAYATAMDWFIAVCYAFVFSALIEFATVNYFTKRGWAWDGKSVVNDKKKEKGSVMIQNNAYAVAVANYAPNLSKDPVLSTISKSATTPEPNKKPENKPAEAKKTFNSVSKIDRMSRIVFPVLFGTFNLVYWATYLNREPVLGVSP

binding [1]: binds
binding [2]: binds
Substance: β2 spectrin (from UniProt Q62261 1-2363)
